Results reported in PMC6656771.

Molecular target: T1, Flag-USP47 (Ubiquitin-Specific Protease 47) (UniProt Q96K76)
T1 sequence: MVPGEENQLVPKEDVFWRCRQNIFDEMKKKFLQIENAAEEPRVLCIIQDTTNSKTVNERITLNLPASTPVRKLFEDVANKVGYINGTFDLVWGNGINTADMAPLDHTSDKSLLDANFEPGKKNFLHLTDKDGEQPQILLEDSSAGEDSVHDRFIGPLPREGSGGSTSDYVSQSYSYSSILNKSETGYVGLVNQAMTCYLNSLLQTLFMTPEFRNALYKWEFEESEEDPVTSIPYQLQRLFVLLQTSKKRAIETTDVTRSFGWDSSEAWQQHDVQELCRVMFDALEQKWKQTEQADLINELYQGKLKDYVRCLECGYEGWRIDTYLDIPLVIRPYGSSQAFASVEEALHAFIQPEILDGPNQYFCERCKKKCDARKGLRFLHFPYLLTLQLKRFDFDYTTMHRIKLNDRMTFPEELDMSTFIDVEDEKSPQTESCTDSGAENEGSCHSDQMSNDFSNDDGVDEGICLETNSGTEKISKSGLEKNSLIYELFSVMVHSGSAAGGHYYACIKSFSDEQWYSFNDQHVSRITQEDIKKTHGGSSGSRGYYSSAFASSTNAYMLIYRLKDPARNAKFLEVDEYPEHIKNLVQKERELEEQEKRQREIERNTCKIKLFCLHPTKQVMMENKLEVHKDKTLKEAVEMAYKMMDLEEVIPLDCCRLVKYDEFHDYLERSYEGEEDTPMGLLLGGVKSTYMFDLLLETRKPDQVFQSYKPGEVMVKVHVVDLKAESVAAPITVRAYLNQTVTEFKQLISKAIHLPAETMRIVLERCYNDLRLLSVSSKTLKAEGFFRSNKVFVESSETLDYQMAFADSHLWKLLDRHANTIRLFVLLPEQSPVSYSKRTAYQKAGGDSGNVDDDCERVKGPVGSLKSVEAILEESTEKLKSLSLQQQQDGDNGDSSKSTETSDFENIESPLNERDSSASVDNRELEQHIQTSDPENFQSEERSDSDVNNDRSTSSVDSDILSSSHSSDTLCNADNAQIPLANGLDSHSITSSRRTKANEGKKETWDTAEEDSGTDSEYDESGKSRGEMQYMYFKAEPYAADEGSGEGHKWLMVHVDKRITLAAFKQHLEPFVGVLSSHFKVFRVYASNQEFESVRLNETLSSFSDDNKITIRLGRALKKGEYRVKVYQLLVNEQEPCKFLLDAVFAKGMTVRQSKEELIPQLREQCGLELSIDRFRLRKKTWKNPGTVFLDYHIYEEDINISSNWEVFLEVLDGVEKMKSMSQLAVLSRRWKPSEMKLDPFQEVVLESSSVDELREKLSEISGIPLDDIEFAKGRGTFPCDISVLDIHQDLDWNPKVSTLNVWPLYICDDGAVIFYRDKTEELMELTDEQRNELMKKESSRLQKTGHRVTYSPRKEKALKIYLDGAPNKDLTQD
Assay: co-IP; MEFs transfected with ERAP1 and/or Flag-USP47; whole-cell extracts in Triton Buffer (50 mM Tris-HCl pH 7.5, 250 mM sodium chloride, 50 mM sodium fluoride, 1 mM EDTA pH 8, 0.1% Triton); antibody overnight at 4 °C, Protein G- or Protein A-agarose beads, five washes, immunoblot; for Flag-USP47 with βTrCP also increasing amounts of ERAP1, Leu-SH for 24 h, or shERAP1

binding: binds
Substance: endogenous β-transducin-repeat containing E3 ubiquitin protein ligase (βTrCP) (mouse (endogenous in MEFs))

These are yes or no findings as the source states them, for the method shown. In cells and extracts the contact can be indirect. A result given as binding can be weak or reduced; the word gives no strength. Sequences can lack the tags named with a protein.
